Drug screen on melanoma cell lines: apoptosis marker

From a melanoma drug combination screen (doi:10.1371/journal.pone.0140310); values rounded.

All values are for the listed drug together with dasatinib (0.02 µM): Cc1nc(Nc2ncc(C(=O)Nc3c(C)cccc3Cl)s2)cc(N2CCN(CCO)CC2)n1

Drug key:
dovitinib (0.5 µM): CN1CCN(c2ccc3nc(-c4c(N)c5c(F)cccc5[nH]c4=O)[nH]c3c2)CC1
fludarabine (1 µM): Nc1nc(F)nc2c1ncn2[C@@H]1O[C@H](CO)[C@@H](O)[C@@H]1O
GW441756 (2 µM): Cn1cc(/C=C2\C(=O)Nc3cccnc32)c2ccccc21
perifosine (2 µM): CCCCCCCCCCCCCCCCCCOP(=O)([O-])OC1CC[N+](C)(C)CC1
temozolomide (10 µM): Cn1nnc2c(C(N)=O)ncn2c1=O
OSI-906 (2 µM): C[C@]1(O)C[C@@H](c2nc(-c3ccc4ccc(-c5ccccc5)nc4c3)c3c(N)nccn32)C1
AZD7762 (0.1 µM): NC(=O)Nc1cc(-c2cccc(F)c2)sc1C(=O)N[C@H]1CCCNC1
sunitinib (2 µM): CCN(CC)CCNC(=O)c1c(C)[nH]c(/C=C2\C(=O)Nc3ccc(F)cc32)c1C
ruxolitinib (5 µM): N#CC[C@H](C1CCCC1)n1cc(-c2ncnc3[nH]ccc23)cn1
T0901317 (7 µM): O=S(=O)(c1ccccc1)N(CC(F)(F)F)c1ccc(C(O)(C(F)(F)F)C(F)(F)F)cc1
bexarotene (10 µM): C=C(c1ccc(C(=O)O)cc1)c1cc2c(cc1C)C(C)(C)CCC2(C)C
bortezomib (0.005 µM): CC(C)C[C@H](NC(=O)[C@H](Cc1ccccc1)NC(=O)c1cnccn1)B(O)O
ENMD-2076 (0.2 µM): Cc1cc(Nc2cc(N3CCN(C)CC3)nc(/C=C/c3ccccc3)n2)n[nH]1
GW0742 (10 µM): Cc1cc(SCc2sc(-c3ccc(C(F)(F)F)c(F)c3)nc2C)ccc1OCC(=O)O
GSK650394 (0.8 µM): O=C(O)c1ccc(-c2c[nH]c3ncc(-c4ccccc4)cc23)cc1C1CCCC1

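The test systems are human melanoma cell lines, treated with a pair of drugs for 72 h and then stained and imaged. Each value is the cleaved-PARP-positive fraction of nuclei relative to DMSO-treated wells, in %, so that 100 equals the control and higher values mean more apoptosis. Concentrations were fixed for each drug; these are the higher of two levels. These are primary screening values without error estimates. Basal and induced levels differ widely between cell lines.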
Only some of the drugs and lines screened are listed, without regard to their results.

Second drug,MEL-HO,MeWo,SK-MEL-30,G-361,UACC-257
GW0742,110,35.3,78.0,20.4,66.9
ENMD-2076,114,121,34.0,127,96.3
temozolomide,102,68.0,238,83.9,18.9
ruxolitinib,158,166,154,168,155
perifosine,154,32.3,99.7,128,43.8
T0901317,128,38.8,215,62.3,40.6
OSI-906,50.5,175,205,152,130
bortezomib,379,1760,538,3080,87.2
GSK650394,96.6,103,62.0,96.4,94.8
GW441756,55.3,23.8,149,119,24.5
AZD7762,105,325,698,62.2,88.0
bexarotene,120,78.5,93.1,117,135
sunitinib,155,105,85.6,192,50.4
fludarabine,61.4,112,2490,128,4600
dovitinib,57.2,398,273,140,176

Some entries from above, unchanged:

| Second drug | MEL-HO | MeWo | SK-MEL-30 | G-361 | UACC-257 |
|---|---|---|---|---|---|
| temozolomide | 102 | 68.0 | 238 | 83.9 | 18.9 |
| fludarabine | 61.4 | 112 | 2490 | 128 | 4600 |